Measurements reported in PubChem BioAssay AID1159584 (Peter MacCallum Cancer Centre, 2016)
Test: 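Genes that CDH1-null MCF10A cells selectively depend on to survive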 (primary screen). Cells: human MCF10A breast epithelial cells, parental and CDH1-null. Knock-down reagent: siRNA against human genes. Read-out: 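ATP luminescence (CellTiter-Glo) viability per line relative to mean mock wells over all plates, and the ratio of CDH1-null to parental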. Direction: CDH1-null / parental viability ratio: higher = CDH1-null cells survive relatively better than parental; CDH1-null viability vs mock: higher = more viable CDH1-null cells; parental viability vs mock: higher = more viable parental cells.
In all, the deposit lists about 18,000 reagents; below is a part drawn at random. The record does not give: the amount of reagent, the time to read-out.

no.	gene	PubChem SID	CDH1-null / parental viability ratio	CDH1-null viability vs mock (fraction of mock)	parental viability vs mock (fraction of mock)
1	MYH7 (myosin heavy chain 7)	SID152147938	1.09	0.99	0.91
2	JAG2 (jagged canonical Notch ligand 2)	SID134321137	0.95	0.7	0.74
3	DHX30 (DExH-box helicase 30)	SID134321146	1	0.88	0.88
4	MMP14 (matrix metallopeptidase 14)	SID134310291	1.01	0.74	0.73
5	ACLY (ATP citrate lyase)	SID134310674	1.27	1.27	1
6	ATXN1 (ataxin 1)	SID152153552	0.89	0.62	0.7
7	SNX1 (sorting nexin 1)	SID152149347	1.14	0.98	0.86
8	H3C14 (H3 clustered histone 14)	SID134322908	0.74	0.52	0.7
9	ZNF674 (zinc finger protein 674)	SID135625446	1.23	0.81	0.66
10	MCCC2 (methylcrotonyl-CoA carboxylase subunit 2)	SID134310668	1.07	0.87	0.81
11	TTC23L (tetratricopeptide repeat domain 23 like)	SID152155402	1.17	0.61	0.52
12	FRG2 (FSHD region gene 2)	SID152154999	0.88	0.79	0.9
13	CIMIP4 (ciliary microtubule inner protein 4)	SID134322305	0.71	0.58	0.82
14	GSK3A (glycogen synthase kinase 3 alpha)	SID56478467	0.87	0.74	0.85
15	NOSIP (nitric oxide synthase interacting protein)	SID152147575	1.12	0.65	0.58
16	DEFB136 (defensin beta 136)	SID135625413	1.1	1.17	1.06
17	SKIL (SKI like proto-oncogene)	SID134315035	1.05	0.8	0.76
18	CXCR3 (C-X-C motif chemokine receptor 3)	SID134310920	0.75	0.61	0.81
19	ATRNL1 (attractin like 1)	SID152151879	0.85	0.75	0.88
20	KRTAP13-1 (keratin associated protein 13-1)	SID135623571	1.05	0.8	0.76
21	RPL32 (ribosomal protein L32)	SID152154238	1.24	0.36	0.29
22	ATG7 (autophagy related 7)	SID152154499	0.85	0.78	0.92
23	CMTM8 (CKLF like MARVEL transmembrane domain containing 8)	SID134315246	0.96	0.77	0.8
24	KCNQ1 (potassium voltage-gated channel subfamily Q member 1)	SID135621173	1.15	0.84	0.73
25	EDA2R (ectodysplasin A2 receptor)	SID134312976	1.09	1.02	0.94
26	MRPL4 (mitochondrial ribosomal protein L4)	SID134321405	1.49	0.76	0.51
27	CTBP1 (C-terminal binding protein 1)	SID135621605	0.9	0.69	0.77
28	CGB3 (chorionic gonadotropin subunit beta 3)	SID134315522	0.98	0.61	0.62
29	PAQR7 (progestin and adipoQ receptor family member 7)	SID152150895	1	0.86	0.86
30	DHDDS (dehydrodolichyl diphosphate synthase subunit)	SID135621944	0.93	0.92	0.99
31	ACTG2 (actin gamma 2, smooth muscle)	SID152153748	0.88	0.76	0.86
32	ULBP3 (UL16 binding protein 3)	SID134318514	1.48	0.98	0.66
33	TIMM50 (translocase of inner mitochondrial membrane 50)	SID152152065	1.26	1.03	0.82
34	FAM184A (family with sequence similarity 184 member A)	SID152149783	1.06	0.92	0.87
35	SHC1 (SHC adaptor protein 1)	SID135623614	1.57	0.66	0.42
36	MMP1 (matrix metallopeptidase 1)	SID134311376	1.32	0.82	0.62
37	PEG3 (paternally expressed 3)	SID134311866	0.95	0.52	0.55
38	ZMAT3 (zinc finger matrin-type 3)	SID152151949	0.84	0.72	0.86
39	IKBKB (inhibitor of nuclear factor kappa B kinase subunit beta)	SID152150353	0.81	0.84	1.04
40	EDEM3 (ER degradation enhancing alpha-mannosidase like protein 3)	SID152147169	1.11	0.91	0.82
41	ZC4H2 (zinc finger C4H2-type containing)	SID134312148	1.19	0.56	0.47
42	GCHFR (GTP cyclohydrolase I feedback regulator)	SID134316336	1.15	0.76	0.66
43	RIC8A (RIC8 guanine nucleotide exchange factor A)	SID135623087	0.86	0.94	1.09
44	CCDC88B (coiled-coil and HOOK domain protein 88B)	SID152151212	0.79	1.12	1.42
45	LRRC37A2 (leucine rich repeat containing 37 member A2)	SID152151263	0.99	0.78	0.79
46	CAMK2G (calcium/calmodulin dependent protein kinase II gamma)	SID56478805	1.07	1.02	0.95
47	NRK (Nik related kinase)	SID152149639	0.9	0.88	0.98
48	AGPS (alkylglycerone phosphate synthase)	SID152156275	0.76	0.72	0.95
49	CAMKMT (calmodulin-lysine N-methyltransferase)	SID135622744	0.99	0.82	0.83
50	ADAM8 (ADAM metallopeptidase domain 8)	SID152149005	1.36	0.76	0.56
51	KERA (keratocan)	SID135622395	1.18	0.52	0.44
52	PALLD (palladin, cytoskeletal associated protein)	SID152152350	0.81	0.86	1.06
53	SNAP91 (synaptosome associated protein 91)	SID152154955	0.86	0.96	1.12
54	MYLK (myosin light chain kinase)	SID152147192	0.87	0.75	0.86
55	PIAS4 (protein inhibitor of activated STAT 4)	SID134311788	1	0.82	0.82
56	CMTM5 (CKLF like MARVEL transmembrane domain containing 5)	SID134315242	1.17	0.89	0.76
57	RINL (Ras and Rab interactor like)	SID152152756	0.94	0.34	0.36
58	EIF2B5 (eukaryotic translation initiation factor 2B subunit epsilon)	SID135622351	0.88	0.58	0.66
59	GPR132 (G protein-coupled receptor 132)	SID134310950	0.67	0.6	0.9
60	DERA (deoxyribose-phosphate aldolase)	SID152146837	0.82	0.75	0.92
61	CCR10 (C-C motif chemokine receptor 10)	SID152155702	1.54	0.83	0.54
62	TBCD (tubulin folding cofactor D)	SID152152480	1.04	0.76	0.73
63	INHBE (inhibin subunit beta E)	SID134325015	1.32	0.86	0.65
64	NXNL1 (nucleoredoxin like 1)	SID134319529	0.99	0.87	0.88
65	UBN1 (ubinuclein 1)	SID152152199	1.43	0.6	0.42
66	CD1C (CD1c molecule)	SID152152446	0.76	0.59	0.78
67	MTERF3 (mitochondrial transcription termination factor 3)	SID134320742	0.81	0.68	0.84
68	ARL9 (ARF like GTPase 9)	SID135625220	1	0.78	0.78
